# Source: PubChem BioAssay AID504444 (National Center for Advancing Translational Sciences (NCATS), 2011)
# Out of some 360,000 compounds screened, about 7,500 (2.1%) were called active. This list was built around the results that the source calls inconclusive (neither active nor inactive); the mix of calls is not that of the screen. Calls come from the whole dose curve; as a rule, active = well fitted inhibition curve with a large enough effect; inconclusive = small, poorly fitted or top-dose-only effect, or effect the other way; inactive = flat fitted curve, though single readings scatter. Potencies beside an inconclusive call are fits to weak or partial responses and may not hold up.
# Test: Nrf2 qHTS screen for inhibitors; note: nearly all actives have a fitted effect of over 60% in size
# Settings: A549 ARE-Fluc reporter, luciferase luminescence, 18-24 h; activity change, negative = inhibition: at 46 µM (top of the series)
# Outline: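 Cells were seeded and rested 2 h, then exposed to compounds for 18-24 h. CellTiter-Fluor was read first as a viability measure. BugLite was added 15 min before the final luminescent read of ARE-luciferase activity in A549 cells.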
# % is set by controls: 0 for no effect and ±100 for the full control effect; potency is the fitted concentration of half-maximal effect.
SMILES,Potency,"activity change, negative = inhibition"
Cc1cccn2c(=O)c(C=NCc3ccco3)c(Nc3ccc(SC(F)F)cc3)nc12,"inconclusive: 18.4 µM [falling, single point]",–
Cc1ccc(NS(=O)(=O)c2ccc(C(=O)NCCN3CCOCC3)cc2)cc1,active: 9.2 µM,–
Cc1oc2c(C)c3oc(=O)c(CCC(=O)N4CCCCC4)c(C)c3cc2c1C,–,inactive: 2%
COc1ccc(CNC(=O)c2ccc(S(=O)(=O)N3CC(C)CC(C)C3)cc2)cc1OC (stereo unspecified),"inconclusive: 29.1 µM [falling, single point]",–
Cc1cc(C(=O)CSc2nc3ccccc3o2)c(C)n1CC1CCCO1 (stereo unspecified),–,inactive: -8.48%
Clc1ccc(CNc2ncnc3[nH]ncc23)c(Cl)c1,active: 23.1 µM,–
CCNC(=S)NNC(=O)c1cc(C2CC2)nc2ccccc12,"inconclusive: 29.1 µM [falling, single point]",–
CC(=O)c1ccc(OCc2cc(C(=O)NC(C)c3cnn(C)c3)no2)cc1 (stereo unspecified),"inconclusive: 8.2 µM [activator, partial curve]",–
CC(=O)Nc1ccc(OC/C=C(\C)Cl)cc1,"inconclusive: 16.4 µM [activator, single point]",–
O=C(COC(=O)COc1ccccc1)Nc1ccc(S(=O)(=O)N2CCOCC2)cc1,"inconclusive: 23.1 µM [activator, single point]",–
COc1cccc(CSc2nnnn2-c2ccc(O)cc2)c1,"inconclusive: 32.6 µM [falling, single point]",–
CCCc1nc(-c2ccc(-c3ccc(F)cc3)cc2)no1,–,inactive: 0.0382%
C=CCN1C(=O)C(CC(=O)O)SC1=Nc1ccc(N=Nc2ccccc2)cc1 (stereo unspecified),"inconclusive: 25.9 µM [falling, partial curve, poor fit]",–
Cc1nn(CCO)c(N)c1C1(O)C(=O)Nc2c(Cl)cc(Cl)cc21 (stereo unspecified),–,inactive: -4.15%
COc1cccc(NS(=O)(=O)c2ccc3c(c2)N(C(C)=O)CCO3)c1,"inconclusive: 11.6 µM [falling, partial curve, poor fit]",–
CCn1c(C)c(C)c2cc(C(=O)NCCc3cc(OC)ccc3OC)ccc21,"inconclusive: 18.4 µM [falling, partial curve]",–
COc1ccc(C(=O)C2CCN(CC(=O)NCc3ccccc3)CC2)cc1,"inconclusive: 11.6 µM [falling, partial curve, poor fit]",–
Cc1ccc(C(C(=O)NC(C)(C)C)N(Cc2cccs2)C(=O)c2csnn2)cc1 (stereo unspecified),"inconclusive: 32.6 µM [falling, partial curve, poor fit]",–
COc1ccc(-c2csc(NC(=O)CS(=O)(=O)c3ccccc3)n2)cc1,"inconclusive: 32.6 µM [falling, single point]",–
COc1cc(NC(=O)c2ccc(Cl)cc2Cl)ccc1-c1cc2ccccc2oc1=O,–,inactive: 22.2%
CC(=O)N1CCOc2ccc(S(=O)(=O)NCC3CCC(C(=O)Nc4ccc(C)cn4)CC3)cc21 (stereo unspecified),"inconclusive: 20.6 µM [falling, partial curve, poor fit]",–
COc1ccccc1N1CCN(C(=O)COc2ccccc2C#N)CC1,–,inactive: 9.15%

SMILES,Potency,"activity change, negative = inhibition"
O=C(CCC(=O)N1CCN(c2ccccn2)CC1)c1cccs1,"inconclusive: 25.9 µM [activator, partial curve, poor fit]",–
O=C(Cn1c(-c2ccccc2)c[n+]2ccsc12)c1ccc(Br)cc1,"inconclusive: 13 µM [falling, partial curve]",–
Cn1c(=O)[nH]c(=O)c2c1ncn2CCN1CCOCC1,"inconclusive: 23.1 µM [activator, single point]",–
COc1ccc(OCc2cc(C(=O)NCC3CCCCO3)no2)c(Cl)c1 (stereo unspecified),–,inactive: 8.01%
CCOc1ccc(S(=O)(=O)N2CCC(n3c(C)nc4cccnc43)CC2)cc1,"inconclusive: 18.4 µM [falling, partial curve, poor fit]",–
CC(C)Nc1nnc(SCC(=O)Nc2ccc3c(c2)C(=O)c2ccccc2C3=O)s1,–,inactive: -12%
Cc1cccc(NC2(C(=O)O)CCCC2)c1,"inconclusive: 8.2 µM [activator, partial curve]",–
COc1cccc(C2CC(c3ccc(Br)cc3)=NN2C(=O)c2ccncc2)c1OC (stereo unspecified),active: 18.4 µM,–
O=C(/C=C/C=C/c1ccccc1)c1ccco1,–,inactive: 28.8%
COc1ccc2oc(C(=O)OCC(=O)N3CCN(c4ccccc4)CC3)c(C)c2c1,"inconclusive: 32.6 µM [falling, partial curve, poor fit]",–
Cc1nc2c(o1)C(=O)c1ccccc1C2=Nc1ccccc1,"inconclusive: 29.1 µM [falling, single point]",–
CC(=O)c1cc(CN2CCC(n3nccc3NC(=O)c3ccccc3C)CC2)cs1,"inconclusive: 18.4 µM [activator, partial curve, poor fit]",–
COc1ccc(S(=O)(=O)N2CCCCC2)cc1NCC(=O)Nc1ccc(C)cc1,active: 16.4 µM,–
O=C(Nc1cc(C(=O)N2CCN(c3ccccc3)CC2)ccc1Cl)c1cccs1,"inconclusive: 13 µM [falling, partial curve]",–
COc1ccc(-c2noc(-c3ccc(NCCc4ccccc4)c([N+](=O)[O-])c3)n2)cc1,"inconclusive: 29.1 µM [activator, single point]",–
COc1ccc(C(=O)Nc2cc(-c3ccccc3)nn2-c2ccccc2F)cc1,"inconclusive: 29.1 µM [falling, single point]",–
O=C(Cn1cc(S(=O)(=O)Cc2ccccc2Cl)c2ccccc21)Nc1ccc(F)cc1F,"inconclusive: 29.1 µM [falling, single point]",–
CCN1CCN(c2ccc(S(=O)(=O)N3CCOCC3)cc2NC(=O)c2sccc2C)CC1,–,inactive: -8.05%
O=S(=O)(Nc1cccc(-c2cn3cccnc3n2)c1)c1ccc(F)cc1,active: 16.4 µM,–
N#Cc1cccc(NC(=O)C2CCCN(C(=O)c3ccc(Cl)cc3)C2)c1 (stereo unspecified),"inconclusive: 20.6 µM [falling, single point]",–
COc1ccc(NS(=O)(=O)c2ccc(C(=O)N3CCC(C)CC3)cc2)cc1,"inconclusive: 29.1 µM [falling, single point]",–
COc1ccc(C(=O)COC(=O)c2sc(C)nc2C)cc1Cl,"inconclusive: 25.9 µM [falling, partial curve, poor fit]",–

SMILES,Potency,"activity change, negative = inhibition"
OCC1(Cc2ccc(F)cc2)CCCN(CCCC(F)(F)F)C1 (stereo unspecified),"inconclusive: 2.91 µM [falling, partial curve, poor fit]",–
CCOc1ccc(CNC(=O)Nc2ccccc2)cc1,"inconclusive: 4.11 µM [activator, full curve]",–
CCCOc1c(Cl)cc(C(=O)Nc2ccc3c(c2)OCO3)cc1OCC,"inconclusive: 35.5 µM [falling, single point]",–
CCOCCCNC(=S)N1CCN(c2nc(-c3ccc(F)cc3)cs2)CC1,active: 16.4 µM,–
COc1ccc(NC(=O)CCc2c(C)nc3cc(-c4cccc(F)c4)nn3c2C)cc1Cl,"inconclusive: 2.06 µM [falling, full curve, poor fit]",–
CC(=O)Nc1cccc(C(=O)N/N=C/c2ccccc2F)c1,"inconclusive: 2.31 µM [activator, partial curve]",–
Cc1ccc(-n2cc(CNC(C)c3cnn(C)c3)c(-c3ccc(F)cc3)n2)cc1 (stereo unspecified),–,inactive: -3.9%
O=C(Nc1ccc(C(=O)OC2CCCCC2)cc1)c1ccncc1,"inconclusive: 29.1 µM [falling, single point]",–
CN(c1ccccc1)S(=O)(=O)c1cccc(NC(=O)Cc2ccc(Cl)cc2)c1,"inconclusive: 29.1 µM [falling, single point]",–
O=C(NC(=S)NCc1nc2ccccc2[nH]1)c1ccc(F)cc1,"inconclusive: 25.9 µM [activator, single point]",–
N#CCSc1ccc2nc(-c3ccccc3)cn2n1,"inconclusive: 1.84 µM [activator, full curve]",–
COc1ccccc1N1CCN(C(=O)CCCn2nc(C)c([N+](=O)[O-])c2C)CC1,"inconclusive: 5.8 µM [falling, partial curve]",–
CCOC(=O)c1c(C)[nH]c(C)c1S(=O)(=O)N(C)CC(=O)Nc1ccc(C)c(F)c1,"inconclusive: 29.1 µM [activator, single point]",–
CC(=O)Nc1ccc2nc(SCCOc3ccccc3Cl)sc2c1,"inconclusive: 6.51 µM [falling, partial curve, poor fit]",–
COc1cccc(CNC(=O)N2CCN(c3ccccc3C)CC2)c1,–,inactive: -11.3%
COC(=O)c1cc2sccc2n1Cc1nc(-c2ccc(C)cc2)oc1C,"inconclusive: 16.4 µM [activator, partial curve]",–
COC(=O)c1cc(C(=O)N2CCc3ccccc32)cc([N+](=O)[O-])c1,"inconclusive: 3.66 µM [falling, single point]",–
COc1cc(C(CCN2CCOCC2)c2c(OC)cc(OC)c3c(C)cc(=O)oc23)cc(OC)c1OC (stereo unspecified),"inconclusive: 7.31 µM [activator, partial curve, poor fit]",–
CCc1ccccc1NC(=O)c1ccc2c(c1)c(C)c(C)n2Cc1ccccc1,"inconclusive: 32.6 µM [falling, single point]",–
COc1ccc(Oc2cnc3ccccc3n2)cc1,"inconclusive: 9.2 µM [activator, partial curve]",–
O=C1OCCN1C(=O)[C@H]1[C@H](c2ccc(F)cc2)C(c2cccc(Cl)c2)=NN1c1ccc(Br)cc1,"inconclusive: 29.1 µM [falling, single point]",–
Cc1cccc(N2CCN(C(=O)CCCSc3nc4ccccc4[nH]3)CC2)c1C,"inconclusive: 20.6 µM [falling, single point]",–

# Complete entries as entered above.
# `CCCOc1c(Cl)cc(C(=O)Nc2ccc3c(c2)OCO3)cc1OCC` as listed: Potency: inconclusive: 35.5 µM [falling, single point]
# `Cc1cccn2c(=O)c(C=NCc3ccco3)c(Nc3ccc(SC(F)F)cc3)nc12` as listed: Potency: inconclusive: 18.4 µM [falling, single point]
# `Clc1ccc(CNc2ncnc3[nH]ncc23)c(Cl)c1` as listed: Potency: active: 23.1 µM
# `COc1ccc(C(=O)C2CCN(CC(=O)NCc3ccccc3)CC2)cc1` as listed: Potency: inconclusive: 11.6 µM [falling, partial curve, poor fit]

# 2 entries picked at random from the list so far:
SMILES,Potency,"activity change, negative = inhibition"
COc1ccc(Oc2cnc3ccccc3n2)cc1,"inconclusive: 9.2 µM [activator, partial curve]",–
CCc1ccccc1NC(=O)c1ccc2c(c1)c(C)c(C)n2Cc1ccccc1,"inconclusive: 32.6 µM [falling, single point]",–
